PubChem BioAssay AID1224829, NIAID | 2016
Assay: 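Secondary check of hits that alter LPS-induced p65 translocation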 (follow-up of hits). Cell system: mouse RAW264.7 G9 macrophage reporter cells. Reagents: single siRNA against mouse genes, 100 nM. Time to read-out: 2 days of siRNA knock-down, then 40 min of LPS before fixing. Conditions: LPS (Salmonella minnesota R595) at 10 ng/ml. Measured: 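Imaging of GFP-p65 after 40 min of LPS; nuclear over perinuclear ring intensity ratio, scaled to plate median and non-targeting control wells, given as z-score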. Direction: p65 translocation z-score: higher = more nuclear NF-kappaB p65 after LPS. Active means: 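Active means the replicate-mean z-score lies beyond plus or minus 2, in either direction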. Calls: active = changed p65 translocation (either direction); inactive = no clear change.
The whole screen tested about 3,800 reagents; this is an unselected part. 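Calls cover raised and lowered translocation; gene median uses one vendor's three siRNAs; qiagen siRNAs acted more weakly than ambion siRNAs.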 Unmarked entries are inactive. The numbers tell different reagents against one gene apart. Further read-outs or replicates are left out here. Reagent sequences are not shown.

Target gene	siRNA no.	siRNA vendor or control pool	p65 translocation z-score, replicate mean	p65 translocation z-score, replicate 1
Nfyb (nuclear transcription factor-Y beta)	1	ambion single siRNA	0.902	0.682
Nfyb (nuclear transcription factor-Y beta)	2	ambion single siRNA	-1.62	-0.879
Nfyb (nuclear transcription factor-Y beta)	3	ambion single siRNA	0.407	0.771
Nfyb (nuclear transcription factor-Y beta)	4	qiagen single siRNA	1.5	0.674
Nfyb (nuclear transcription factor-Y beta)	5	qiagen single siRNA	2.17 (active)	2.21
Nfyb (nuclear transcription factor-Y beta)	6	qiagen single siRNA	0.826	-0.773
Il22b (interleukin 22B)	1	ambion single siRNA	1.68	1.88
Il22b (interleukin 22B)	2	ambion single siRNA	-2.51 (active)	-3.03
Il22b (interleukin 22B)	3	ambion single siRNA	-3.97 (active)	-3.94
Il22b (interleukin 22B)	4	qiagen single siRNA	1.51	1.51
Il22b (interleukin 22B)	5	qiagen single siRNA	0.857	0.708
Il22b (interleukin 22B)	6	qiagen single siRNA	-0.743	-1.31
Mrps10 (mitochondrial ribosomal protein S10)	1	ambion single siRNA	0.45	0.0576
Mrps10 (mitochondrial ribosomal protein S10)	2	ambion single siRNA	-0.914	1.4
Mrps10 (mitochondrial ribosomal protein S10)	3	ambion single siRNA	-3.82 (active)	-3.82
Mrps10 (mitochondrial ribosomal protein S10)	4	qiagen single siRNA	1.94	0.112
Mrps10 (mitochondrial ribosomal protein S10)	5	qiagen single siRNA	1.87	0.611
Mrps10 (mitochondrial ribosomal protein S10)	6	qiagen single siRNA	2.49 (active)	-0.935
Cbln2 (cerebellin 2 precursor protein)	1	ambion single siRNA	-2.97 (active)	-2.36
Cbln2 (cerebellin 2 precursor protein)	2	ambion single siRNA	-2.14 (active)	-3.1
Cbln2 (cerebellin 2 precursor protein)	3	ambion single siRNA	1.97	4.28
Cbln2 (cerebellin 2 precursor protein)	4	qiagen single siRNA	4.07 (active)	3.5
Cbln2 (cerebellin 2 precursor protein)	5	qiagen single siRNA	-0.328	-0.472
Cbln2 (cerebellin 2 precursor protein)	6	qiagen single siRNA	-2.29 (active)	-1.6
Birc2 (baculoviral IAP repeat-containing 2)	1	ambion single siRNA	-7.08 (active)	-7.14
Birc2 (baculoviral IAP repeat-containing 2)	2	ambion single siRNA	-5.28 (active)	-5.46
Birc2 (baculoviral IAP repeat-containing 2)	3	ambion single siRNA	2.2 (active)	2.4
Birc2 (baculoviral IAP repeat-containing 2)	4	qiagen single siRNA	2.15 (active)	2.87
Birc2 (baculoviral IAP repeat-containing 2)	5	qiagen single siRNA	0.918	1.34
Birc2 (baculoviral IAP repeat-containing 2)	6	qiagen single siRNA	-1.44	-1.6
2900005J15Rik (RIKEN cDNA 2900005J15 gene)	1	ambion single siRNA	0.0802	-1.16
2900005J15Rik (RIKEN cDNA 2900005J15 gene)	2	ambion single siRNA	-1.04	-0.529
2900005J15Rik (RIKEN cDNA 2900005J15 gene)	3	ambion single siRNA	-1.32	0.338
2900005J15Rik (RIKEN cDNA 2900005J15 gene)	4	qiagen single siRNA	0.414	1.14
2900005J15Rik (RIKEN cDNA 2900005J15 gene)	5	qiagen single siRNA	2.04 (active)	1.34
2900005J15Rik (RIKEN cDNA 2900005J15 gene)	6	qiagen single siRNA	1.03	0.449

An excerpt from above, showing only “p65 translocation z-score, replicate mean”:
Mrps10 (mitochondrial ribosomal protein S10) #5, siRNA vendor or control pool qiagen single siRNA = 1.87
Mrps10 (mitochondrial ribosomal protein S10) #6, siRNA vendor or control pool qiagen single siRNA = 2.49 (active)
Cbln2 (cerebellin 2 precursor protein) #1, siRNA vendor or control pool ambion single siRNA = -2.97 (active)
Cbln2 (cerebellin 2 precursor protein) #2, siRNA vendor or control pool ambion single siRNA = -2.14 (active)
Cbln2 (cerebellin 2 precursor protein) #3, siRNA vendor or control pool ambion single siRNA = 1.97
Cbln2 (cerebellin 2 precursor protein) #4, siRNA vendor or control pool qiagen single siRNA = 4.07 (active)
